The list shows a part of the results.

Sequences and labels used below:
B1: il2ra_site1_3nfp_sap_12_mot_e80b558ee5422d85aa46efdc370d0602_0001_af2_000000114_0001_54_65_H_._HHH_b1_00120_0001_0001000036_0000001_0_0001 (protein)
chain: SSSEEEREKVREELEEIAEELGIDPHLVKAALRAWEAFVRAGVDAEEAREAARDALERWWEGSSS
B2: il2ra_site1_2b5i_sap_8_mot_HHH_b2_03607_af2_000000052_0001_1_19_H_._HHH_b2_00963_0001_0000100002_0000001_0_0001_af2pred_dldesign_0_af2pred (protein)
chain: SSSSSSSEARKLIKELEAAVKAEDKEKIEELLKKLEEYAEKHGDKFAKWIVEQVKEELSSSSSSS
B3: il2ra_site2_3nfp_sap_20_mot_HHH_b2_08110_af2_000000162_0001_23_39_H_._4d6df6f985955b7c69c184668ae98992_0001_1_af2_0001_0000300012_0000001_0_0001 (protein)
chain: SSSSSDDHEAYERVVELLKQANRIEDPEEVERLLEEAERLAEEANSPLLRRSVEFVARALSSSSS
B4: il2ra_site2_2erj_sap_30_mot_HHH_b2_00938_af2_000000099_0001_43_55_H_._c0f0c6b645b03e3acbc3a7421e1f7935_0001_1_af2_0001_0000300023_0000001_0_0001 (protein)
chain: SSSSDRLEELLERAEELIEEGDPEEAHKVLREAAEIAFKEGDFETFSKIAELLREVAQLESSSSS
B5: il2ra_site1_2b5i_normal_mot_HHH_b2_04910_000000118_0001_1_19_H_._HHH_b2_01005_0001_0000400029_0000001_0_af2pred_dldesign_0_af2pred (protein)
chain: SSSSSPKYEELLRLIKEAEALYKAGKPEEAKEKLEEAKKLAEELGMTSLLKMIELALAEISSSSS
B6: il2ra_site2_3nfp_sap_11_mot_HHH_b1_00660_af2_000000090_0001_40_57_H_._HHH_b1_04028_0001_0000200005_0000001_0_0001 (protein)
chain: SSSSSDEEIQERVEELLEEARHVEDPEELRRILAEAAHLAFELNDPELFYKIAEAVYEIRSSSSS
B7: il2ra_site2_2erj_sap_9_mot_HHH_b1_07562_000000147_0001_41_55_H_._HHH_b2_04125_0001_0000200012_0000001_0_0001 (protein)
chain: SSSSDEEEREELKQIVEEIVEEFGLSERDRELLEESAKIALELGTSVELIEEFLRLVAEALSSSS
B8: il2ra_site2_3nfp_normal_mot_HHH_b2_04451_000000238_0001_21_37_H_._HHH_b2_04858_af2_0001_0001000029_0000001_0 (protein)
chain: SSSSSEEEEKVKELIEEVEEALKQGDRYEALQLLLEASKIAVRNNNPELARLLLELFEKIQSSSS
B9: il2ra_site2_2erj_sap_17_mot_HHH_b1_05386_000000188_0001_22_38_H_._HHH_b1_00531_0001_0000100002_0000001_0_0001 (protein)
chain: SSSSSDVREEVEELIERAEEAWEKGDLHAVYELANRIMHLAAKYNDPEILELLRELMERVSSSSS
B10: il2ra_site1_1z92_normal_mot_HHH_b1_04604_af2_000000029_0001_42_56_H_._HHH_b2_03915_0001_0000100005_0000001_0_af2pred_0001_af2pred (protein)
chain: SSSSDAELAAEADELLAEGNPEKVEEVLEEIRRAAEERDSRRLKEILENLEEELRELEEESSSSS
B11: il2ra_site2_3nfp_sap_19_mot_HHH_b2_02831_000000278_0001_1_18_H_._5fa2c1a30f04debedfe40931e4d0b367_0001_af2_0001_0000600012_0000001_0_0001 (protein)
chain: SSSSSDEEEAEEAIRILEELGDEEAARYLEAALKLLRENKDPRLRELLKAAVRVVIEARRSSSSS
B12: il2ra_site2_2erj_sap_9_mot_HHH_b1_07584_000000201_0001_42_55_H_._HHH_b2_06441_af2_0001_0000800006_0000001_0_0001 (protein)
chain: SSSSSSEERKEAEELLEEAKEIEDPEEAWEVLREAAELAWEGNDFELWSEIAKILRELASSSSSS
B13: il2ra_site2_3nfp_sap_22_mot_HHH_b1_04960_000000149_0001_23_39_H_._HHH_b2_01371_af2_0001_0000400031_0000001_0_0001 (protein)
chain: SSSSDRAEEYVRAALKLLELALKEGDEEIFERLAEIIEAAIESQGNPELEERLEELKEEGSSSSS
B14: il2ra_site1_2b5i_sap_17_mot_HHH_b2_06557_000000121_0001_42_56_H_._HHH_b1_07426_0001_0000100010_0000001_0_0001_af2pred_0001_af2pred_1 (protein)
chain: SSSSDEAEELFELLEEANKLAHEGNDEEARKLLEEAERLAEEAGNKSLLRLLRAALRILESSSSS
B15: il2ra_site1_2b5i_normal_mot_HHH_b2_04910_000000118_0001_1_19_H_._HHH_b2_03045_0001_0000400017_0000001_1_af2pred_dldesign_0_af2pred (protein)
chain: SSSSSSPELRALLREADALRQAGKDEEAKEVLEEALALAKALKNNAAIKMVESAIKELNSSSSSS
B16: il2ra_site1_2b5i_sap_13_mot_HHH_b2_04274_000000042_0001_1_19_H_._HHH_b2_08110_0001_0000300021_0000001_0_0001_af2pred_dldesign_0_af2pred (protein)
chain: SSSSSRIDRLIELAEEAIAEVKAEGDKAAGAKLVAELRRAAALLKDPRLKALADEAEAWLASSSS
B17: il2ra_site2_3nfp_sap_19_mot_HHH_b2_07209_000000186_0001_1_17_H_._095aa0115aa001b1004419c4ef159b4a_0001_0001_0000100004_0000001_0_0001 (protein)
chain: SSSSDVEELIEEARELIEEGDLFEAAQALMEASKLALELGDPELFRELVKLFEEARERHGSSSSS
B18: il2ra_site1_1z92_sap_14_mot_HHH_b1_01467_000000208_0001_22_39_H_._HHH_b2_01099_0001_0000400016_0000001_0_0001 (protein)
chain: SSSSSREALEELVKSVIELLERVNNPKLFERLKFLLREARLLGDEELVREIEEVLERFEELSSSS

The experiment concerns the target il2ra, P01589. Kind of experiment: yeast display titration.
In the case of B1, the “apparent Kd” value was “inactive: no binding seen”.
With B2 the entry was “inactive: no binding seen”.
With B3 the entry was “inactive: no binding seen”; with B4, “inactive: no binding seen”; with B5, “inactive: no binding seen”.
For the molecule B6, the “apparent Kd” value is “inactive: no binding seen”.
B7: the “apparent Kd” value is “inactive: no binding seen”.
Under B8 stands “inactive: no binding seen”; under B9, “inactive: no binding seen”; under B10, “inactive: no binding seen”.
Turning to B11, the “apparent Kd” value is “inactive: no binding seen”.
Take B12: the “apparent Kd” value is “inactive: no binding seen”.
Under B13 stands “inactive: no binding seen”; under B14, “inactive: no binding seen”; under B15, “inactive: no binding seen”.
In the case of B16, the “apparent Kd” value is “inactive: no binding seen”.
Regarding B17, the “apparent Kd” value was “inactive: no binding seen”.
Regarding B18, the “apparent Kd” value is “inactive: no binding seen”.

The values above are taken from publication PMC10163288.
